Assay results taken from PubChem BioAssay AID2685 (National Center for Advancing Translational Sciences (NCATS), 2010).
About 2,100 (0.66%) of roughly 320,000 compounds were called active. This list was built around the results that the source calls inconclusive (neither active nor inactive); the mix of calls is not that of the screen. The call rests on the fitted dose curve; in most records, active means well fitted inhibition curve with a large enough effect in the signal ratio, with a control signal flat (not every such curve was filed as active); inconclusive means small, poorly fitted or top-dose-only effect, or effect the other way, or a change in a side signal; inactive means flat fitted curve, though single readings scatter; the % refers to the signal ratio. Potencies beside an inconclusive call are fits to weak or partial responses and may not hold up.

test: qHTS Assay for Lipid Storage Modulators in Drosophila S3 Cells; settings: BODIPY lipid droplet fluorescence, 18-24 h, cells fed with added oleic acid; lipid storage change, negative = inhibition: at 46.1 µM (top of the series) unless noted
In short: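 Drosophila S3 cells got compounds at several concentrations plus oleic acid (400 uM solution). Laser-scanning cytometry with 488 nm excitation read lipid droplets at 500-530 nm and cells at 575-640 nm. Percent activity was relative to 20 uM Triacsin C.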
On the % scale 0 is the no-effect control and ±100 the full control effect; potency means the concentration at half of the fitted maximal effect.

Lipid storage change, negative = inhibition, inconclusive:
COc1ccc(Cl)cc1NC(=O)COc1cccc(-n2cnnn2)c1 -116%, COc1ccccc1NS(=O)(=O)c1ccc(C(=O)N2CCCCCCC2)cc1 -14.4%, Cn1cc(C(=O)c2cccc(Cl)c2Cl)cc1C#N -33.9%, Cc1c(C)c2c(OCC(=O)N[C@@H](C(=O)O)c3ccccc3)cc3c(c2oc1=O)CCC(C)(C)O3 26.6%, CC1(C)Cc2c(ccc3ccccc23)C(NNC(=O)c2cccnc2)=N1 20.1%, COc1cc2c(cc1OC)C(c1ccc(N(C)C)cc1)CC(=O)N2 (stereo unspecified) 122%, CCCCN1C(C(=O)Nc2ncccn2)=C(O)c2ccccc2S1(=O)=O 65.7%, O=C(O)CCCC(=O)Nc1cccc(C(F)(F)F)c1 -27.2%, CCN(CC)c1ccc(/C=N/N2CCN(Cc3ccc(Cl)cc3)CC2)c(O)c1 -17.7%, CCCc1nn2c(=O)cc(CSCC(=O)Nc3cccc(OC)c3)nc2s1 2.06%, CCC(=O)Nc1cccc(-c2nnc(SCC(=O)NCc3ccco3)n2C)c1 45.2%, CC(/C=C/c1ccco1)=N/NC(=O)c1ccc(C)nc1 -16.2%, CC[N+](CC)(CCO)CCCN1C(=O)C2CC=C(Cl)CC2C1=O (stereo unspecified) -11%, COc1ccccc1N1CCN(CC(=O)N(CC(C)C)c2c(N)n(CC(C)C)c(=O)[nH]c2=O)CC1 -20.6%, CCCc1cc(=O)[nH]c(SCC(=O)c2cc(C)n(C)c2C)n1 7.04%

Potency, inconclusive:
CC(Sc1c[nH]c2ccccc12)C(=O)O (stereo unspecified) 5.8 nM [activator, full curve, poor fit], CC(=O)N1CCN(C(=O)c2cc(C)nc3ccccc23)CC1 16400 nM [falling, single point], CCn1cc(Br)c(C(=O)NC(C)c2ccccc2)n1 (stereo unspecified) 461 nM [activator, full curve, poor fit], CCN(CC(=O)Nc1ccc2c(c1)OCCO2)c1ccc(S(=O)(=O)N2CCOCC2)cn1 651 nM [activator, full curve, poor fit], Cc1ccc(S(=O)(=O)N2CCC(C(=O)OCCOc3cccc(C)c3)CC2)cc1 731 nM [falling, full curve, poor fit], N#CCCn1cc(C(=O)Nc2ccccc2Br)c(-c2cc3ccccc3o2)n1 29100 nM [falling, single point]
